# Results as given in paper PMC10145938.
# Sequences of proteins named here, by UniProt entry; tags and fusion partners are left off. Residues count along the entry.
# UniProt Q08830, residues 23-312: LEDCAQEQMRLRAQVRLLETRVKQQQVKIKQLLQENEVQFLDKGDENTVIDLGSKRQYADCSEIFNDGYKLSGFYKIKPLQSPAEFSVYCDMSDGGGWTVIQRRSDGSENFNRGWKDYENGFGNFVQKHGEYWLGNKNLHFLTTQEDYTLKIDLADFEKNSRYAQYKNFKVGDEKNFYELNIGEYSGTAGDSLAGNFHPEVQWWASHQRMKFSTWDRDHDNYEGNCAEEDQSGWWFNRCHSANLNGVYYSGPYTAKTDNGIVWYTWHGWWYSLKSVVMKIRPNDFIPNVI
# UniProt Q9NRC8: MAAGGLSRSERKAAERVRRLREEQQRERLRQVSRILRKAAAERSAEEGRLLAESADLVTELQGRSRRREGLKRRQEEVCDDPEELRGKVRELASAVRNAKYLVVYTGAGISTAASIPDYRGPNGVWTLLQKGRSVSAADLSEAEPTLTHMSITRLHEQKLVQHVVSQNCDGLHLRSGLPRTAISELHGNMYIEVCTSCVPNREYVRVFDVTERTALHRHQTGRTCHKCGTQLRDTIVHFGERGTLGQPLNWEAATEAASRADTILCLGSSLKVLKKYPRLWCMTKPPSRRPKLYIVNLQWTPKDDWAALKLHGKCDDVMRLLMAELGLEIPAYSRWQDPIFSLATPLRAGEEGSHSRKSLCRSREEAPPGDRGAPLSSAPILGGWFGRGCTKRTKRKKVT
# Read-outs that look alike come from different tables or passages of the source. Results are given in words; binding and its absence hold for the method and conditions named. Binding seen in cells or lysates may run through a third protein. Some binding calls cover weakened binding; strength is not graded here. For some of these results: Tags and fused reporters may be left off the sequences shown.
# Key:
# [1] = target: Flag-tagged FGL1 (fibrinogen-like protein 1), WT (human) (UniProt Q08830); assay: co-IP; Flag-IP: lysates (NP-40 lysis buffer, 150 mM NaCl, 50 mM Tris-HCl pH 7.5) of transfected HEK293T cells incubated with anti-Flag beads overnight at 4°C, washed 5 times with NP-40 buffer, immunoblot
# [2] = target: Flag-tagged FGL1 (fibrinogen-like protein 1), WT (human) (UniProt Q08830); assay: as above; remark: listed apart in the source
# [3] = target: endogenous FGL1 (fibrinogen-like protein 1) (human (endogenous in HCCLM3)) (UniProt Q08830); assay: co-IP; endogenous IP from HCCLM3 cells: NP-40 lysis buffer with protease inhibitors, 5 μM TSA and 10 mM NAM; anti-FGL1 antibody overnight, Protein G Sepharose 6 hours at 4°C; IgG as negative control; immunoblot
Molecule,binding [1],other results
"Flag-tagged FGL1 (fibrinogen-like protein 1), WT (from UniProt Q08830 23-312)",binds,–
SIRT7-HA (Sirtuin 7) (from UniProt Q9NRC8 1-400) (enzyme),no binding,–
"SIRT2-HA (Sirtuin 2) (enzyme, UniProt Q8IXJ6 1-389) MAEPDPSHPLETQAGKVQEAQDSDSDSEGGAAGGEADMDFLRNLFSQTLSLGSQKERLLDELTLEGVARYMQSERCRRVICLVGAGISTSAGIPDFRSPSTGLYDNLEKYHLPYPEAIFEISYFKKHPEPFFALAKELYPGQFKPTICHYFMRLLKDKGLLLRCYTQNIDTLERIAGLEQEDLVEAHGTFYTSHCVSASCRHEYPLSWMKEKIFSEVTPKCEDCQSLVKPDIVFFGESLPARFFSCMQSDFLKVDLLLVMGTSLQVQPFASLISKAPLSTPRLLINKEKAGQSDPFLGMIMGLGGGMDFDSKKAYRDVAWLGECDQGCLALAELLGWKKELEDLVRREHASIDAQSGAGVPNPSTSASPKKSPPPAKDEARTTEREKPQ",–,binding [2]: binds
"endogenous SIRT2 (Sirtuin 2) (enzyme, UniProt Q8IXJ6 1-389) MAEPDPSHPLETQAGKVQEAQDSDSDSEGGAAGGEADMDFLRNLFSQTLSLGSQKERLLDELTLEGVARYMQSERCRRVICLVGAGISTSAGIPDFRSPSTGLYDNLEKYHLPYPEAIFEISYFKKHPEPFFALAKELYPGQFKPTICHYFMRLLKDKGLLLRCYTQNIDTLERIAGLEQEDLVEAHGTFYTSHCVSASCRHEYPLSWMKEKIFSEVTPKCEDCQSLVKPDIVFFGESLPARFFSCMQSDFLKVDLLLVMGTSLQVQPFASLISKAPLSTPRLLINKEKAGQSDPFLGMIMGLGGGMDFDSKKAYRDVAWLGECDQGCLALAELLGWKKELEDLVRREHASIDAQSGAGVPNPSTSASPKKSPPPAKDEARTTEREKPQ",–,binding [3]: binds
